Test results: the supplement of paper PMC7661543
± gives the standard deviation of the averaged measurements. The effect of the compound repeats well; differences between the knockouts mostly do not.

System: ZR-75-1
Assay: relative cell number vs DMSO control (72 h) (% of DMSO); higher = less growth inhibition (more cells)
Experimental: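 QMAP-Seq: a pool of 5 breast cancer cell lines (ZR-75-1, SKBR3, HCC-38, MDA-MB-231, BT-20), each carrying 12 doxycycline-inducible Cas9 sgRNA perturbations (11 knockouts plus non-targeting sgNT), was treated with compounds for 72 h at four 10-fold doses (10 nM-10 uM or 1 nM-1 uM range). Barcodes were amplified and sequenced, and cell number was interpolated from 293T spike-in standard curves. The result is expressed as % of the median of DMSO wells. Two biological replicates.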

[1] = sgRNA knockout: sgATF3, 1000 nM
[2] = sgRNA knockout: sgATF3, 10000 nM
[3] = sgRNA knockout: sgATF4, 1000 nM
[4] = sgRNA knockout: sgATF4, 10000 nM
[5] = sgRNA knockout: sgATF6, 1000 nM
[6] = sgRNA knockout: sgATF6, 10000 nM
[7] = sgRNA knockout: sgATG7, 1000 nM
[8] = sgRNA knockout: sgATG7, 10000 nM
[9] = sgRNA knockout: sgERN1, 1000 nM
[10] = sgRNA knockout: sgERN1, 10000 nM
[11] = sgRNA knockout: sgHSF2, 1000 nM
[12] = sgRNA knockout: sgHSF2, 10000 nM
[13] = sgRNA knockout: sgNFE2L2, 10 nM
[14] = sgRNA knockout: sgNFE2L2, 100 nM
[15] = sgRNA knockout: sgNFE2L2, 1000 nM
[16] = sgRNA knockout: sgNFE2L2, 10000 nM
[17] = sgRNA knockout: sgSLC35F2, 10 nM
[18] = sgRNA knockout: sgSLC35F2, 100 nM
[19] = sgRNA knockout: sgSLC35F2, 1000 nM
[20] = sgRNA knockout: sgSLC35F2, 10000 nM
[21] = sgRNA knockout: sgXBP1, 1000 nM
[22] = sgRNA knockout: sgXBP1, 10000 nM

SMILES | relative cell number (sgRNA knockout: sgATF3, 10 nM) | relative cell number (sgRNA knockout: sgATF3, 100 nM) | relative cell number [1] | relative cell number [2] | relative cell number (sgRNA knockout: sgATF4, 10 nM) | relative cell number (sgRNA knockout: sgATF4, 100 nM) | relative cell number [3] | relative cell number [4] | relative cell number (sgRNA knockout: sgATF6, 10 nM) | relative cell number (sgRNA knockout: sgATF6, 100 nM) | relative cell number [5] | relative cell number [6] | relative cell number (sgRNA knockout: sgATG7, 10 nM) | relative cell number (sgRNA knockout: sgATG7, 100 nM) | relative cell number [7] | relative cell number [8] | relative cell number (sgRNA knockout: sgERN1, 10 nM) | relative cell number (sgRNA knockout: sgERN1, 100 nM) | relative cell number [9] | relative cell number [10] | relative cell number (sgRNA knockout: sgHSF2, 10 nM) | relative cell number (sgRNA knockout: sgHSF2, 100 nM) | relative cell number [11] | relative cell number [12] | relative cell number [13] | relative cell number [14] | relative cell number [15] | relative cell number [16] | relative cell number [17] | relative cell number [18] | relative cell number [19] | relative cell number [20] | relative cell number (sgRNA knockout: sgXBP1, 10 nM) | relative cell number (sgRNA knockout: sgXBP1, 100 nM) | relative cell number [21] | relative cell number [22]
CN/C(=N\CCSCc1nc[nH]c1C)NC#N [Cimetidine] | 121 ± 12 | 103 ± 41 | 115 ± 22 | 138 ± 10 | 146 ± 72 | 114 ± 35 | 102 ± 25 | 108 ± 4.8 | 110 ± 27 | 134 ± 5.2 | 112 ± 41 | 166 ± 41 | 158 ± 8.3 | 98.8 ± 6.7 | 121 ± 22 | 118 ± 15 | 96.4 ± 12 | 109.5 ± 0.87 | 97.6 ± 8.7 | 106 ± 34 | 116.3 ± 0.73 | 99.6 ± 14 | 93 ± 23 | 110 ± 25 | 120 ± 14 | 120 ± 62 | 114 ± 13 | 117 ± 20 | 115 ± 35 | 125 ± 32 | 78.2 ± 6.4 | 122 ± 26 | 101 ± 24 | 116 ± 25 | 95 ± 7.2 | 107 ± 27
N#Cc1ccc(COC[C@H]2O[C@@H](n3c(NCc4ccc(Cl)c(Cl)c4)nc4c(N)ncnc43)[C@H](O)[C@@H]2O)cc1 | 122 ± 7.5 | 79.5 ± 14 | 104 ± 32 | 66.6 ± 3.8 | 137 ± 10 | 97.2 ± 3.4 | 106 ± 62 | 54 ± 13 | 126 ± 2.6 | 79.9 ± 5.6 | 76.2 ± 4.8 | 49.6 ± 15 | 87.5 ± 15 | 66.7 ± 11 | 93.7 ± 5.6 | 65.6 ± 26 | 114 ± 5.5 | 92.2 ± 9.6 | 100 ± 9.1 | 61.5 ± 2.7 | 102 ± 18 | 103 ± 6.8 | 94 ± 19 | 61.9 ± 21 | 115 ± 8.2 | 119 ± 14 | 97.7 ± 20 | 63.4 ± 8.5 | 104 ± 17 | 78.6 ± 5.9 | 108 ± 67 | 25.1 ± 7.4 | 103 ± 28 | 103 ± 2.9 | 93.5 ± 0.21 | 55.7 ± 14
C[C@]1(O)C[C@@H](c2nc(-c3ccc4ccc(-c5ccccc5)nc4c3)c3c(N)nccn32)C1 [Linsitinib] | 127 ± 28 | 70.5 ± 17 | 68.2 ± 9.7 | 71.9 ± 15 | 115 ± 20 | 119 ± 1.4 | 76.8 ± 16 | 78.7 ± 6.1 | 83.5 ± 1.4 | 101 ± 20 | 62.7 ± 12 | 57.5 ± 2.4 | 93 ± 10 | 71.1 ± 5.1 | 57.5 ± 3.3 | 69.2 ± 5.9 | 92.2 ± 41 | 70.6 ± 14 | 55.5 ± 11 | 73.4 ± 7.7 | 94.7 ± 3.4 | 89.9 ± 4.2 | 70.5 ± 22 | 81.21 ± 0.42 | 117 ± 52 | 102 ± 16 | 80.8 ± 4.3 | 77.7 ± 20 | 114 ± 26 | 129 ± 19 | 59.8 ± 3.9 | 66.7 ± 18 | 97.1 ± 30 | 93.2 ± 20 | 58 ± 4 | 68.8 ± 8.3
Cc1cnc(-c2cnc(NCCNc3ccc(C#N)cn3)nc2-c2ccc(Cl)cc2Cl)[nH]1 | 119 ± 17 | 93 ± 8.8 | 120 ± 16 | 80.5 ± 19 | 111 ± 34 | 104 ± 16 | 116 ± 33 | 111 ± 7 | 99 ± 18 | 117 ± 12 | 98.9 ± 58 | 92.9 ± 20 | 76.9 ± 12 | 78.8 ± 22 | 91.1 ± 8 | 76.3 ± 20 | 108 ± 11 | 96.3 ± 5.6 | 83.8 ± 32 | 75 ± 28 | 84.3 ± 7 | 90 ± 1.7 | 89.1 ± 38 | 86.72 ± 0.86 | 75.2 ± 25 | 95.7 ± 14 | 68.3 ± 18 | 104 ± 44 | 87.5 ± 15 | 63.5 ± 34 | 38.5 ± 35 | 92.5 ± 9.4 | 72.1 ± 18 | 99.9 ± 2.2 | 87.3 ± 7.4 | 98.77 ± 0.83
CCOc1ccccc1-n1c(C(C)N2CCN(C(=O)COc3ccc(Cl)cc3)CC2)nc2ccccc2c1=O (configuration not stated) [Erastin] | 99.2 ± 12 | 113 ± 48 | 114 ± 22 | 62.3 ± 12 | 92.1 ± 22 | 69.5 ± 29 | 124 ± 4.8 | 42.9 ± 9.5 | 118.7 ± 1.1 | 84.6 ± 0.87 | 110 ± 14 | 68.3 ± 7.7 | 83.9 ± 44 | 91.1 ± 22 | 87.6 ± 24 | 65.6 ± 12 | 116 ± 34 | 109 ± 14 | 97.4 ± 11 | 59.9 ± 19 | 82.8 ± 8.5 | 105 ± 5.5 | 86.3 ± 1.2 | 76.4 ± 5.3 | 112 ± 21 | 104 ± 31 | 104 ± 9.9 | 75.6 ± 7.6 | 102 ± 23 | 86.7 ± 4.1 | 55.1 ± 43 | 95.2 ± 56 | 126 ± 12 | 94.8 ± 9 | 101 ± 2.2 | 61.48 ± 0.35
O=C(Cc1ccc(-c2ccc(OCCN3CCOCC3)cc2)cn1)NCc1ccccc1 [KX2391] | 162 ± 22 | 42.9 ± 13 | 20.8 ± 7 | 27.8 ± 1.3 | 147 ± 75 | 38 ± 5.9 | 20.2 ± 0.84 | 27.6 ± 4.5 | 131 ± 89 | 25.8 ± 11 | 13.9 ± 5.9 | 14.5 ± 14 | 159 ± 68 | 30.9 ± 5.8 | 18.4 ± 4.2 | 12.8 ± 0.2 | 150 ± 54 | 50 ± 16 | 18.9 ± 0.63 | 24.6 ± 13 | 139 ± 31 | 38.1 ± 6.2 | 26.4 ± 3.5 | 20.6 ± 2.2 | 138 ± 58 | 39.1 ± 14 | 25.1 ± 9.7 | 21.8 ± 2 | 45.2 ± 0.95 | 21.3 ± 0.77 | 20.7 ± 4.7 | 23.5 ± 11 | 140 ± 46 | 35.5 ± 2.1 | 21.7 ± 3.5 | 16.8 ± 1.2
C=C1C[C@@H]2[C@H](CC[C@]3(C)C(=O)CC[C@@H]23)[C@@]2(C)C=CC(=O)C=C12 [Exemestane] | 111 ± 20 | 103 ± 52 | 130 ± 11 | 100 ± 7 | 135 ± 8.5 | 97.9 ± 20 | 96.5 ± 13 | 73.3 ± 12 | 136 ± 18 | 100 ± 7.5 | 105 ± 63 | 66.4 ± 25 | 80.7 ± 11 | 92.1 ± 13 | 64.1 ± 8.5 | 113 ± 14 | 103 ± 16 | 91.2 ± 20 | 87.9 ± 23 | 96.4 ± 15 | 94.4 ± 16 | 89.5 ± 33 | 105 ± 7.5 | 104 ± 6.7 | 107 ± 43 | 85.4 ± 1.7 | 133 ± 8.1 | 104 ± 6.7 | 97.6 ± 10 | 95.6 ± 39 | 102 ± 6.9 | 85.2 ± 62 | 97.5 ± 19 | 76.9 ± 18 | 101 ± 16 | 101 ± 2.2
